Assay results as given in paper PMC5751204.
These are yes or no findings as the source states them, for the method shown. In cells and extracts the contact can be indirect. Some binding calls cover weakened binding; strength is not graded here. Sequences can lack the tags named with a protein. Blank lines part the entries; values can stand above or below the molecule they belong to.

By UniProt entry, the sequences of proteins in these tests, tags left out.
UniProt P35222: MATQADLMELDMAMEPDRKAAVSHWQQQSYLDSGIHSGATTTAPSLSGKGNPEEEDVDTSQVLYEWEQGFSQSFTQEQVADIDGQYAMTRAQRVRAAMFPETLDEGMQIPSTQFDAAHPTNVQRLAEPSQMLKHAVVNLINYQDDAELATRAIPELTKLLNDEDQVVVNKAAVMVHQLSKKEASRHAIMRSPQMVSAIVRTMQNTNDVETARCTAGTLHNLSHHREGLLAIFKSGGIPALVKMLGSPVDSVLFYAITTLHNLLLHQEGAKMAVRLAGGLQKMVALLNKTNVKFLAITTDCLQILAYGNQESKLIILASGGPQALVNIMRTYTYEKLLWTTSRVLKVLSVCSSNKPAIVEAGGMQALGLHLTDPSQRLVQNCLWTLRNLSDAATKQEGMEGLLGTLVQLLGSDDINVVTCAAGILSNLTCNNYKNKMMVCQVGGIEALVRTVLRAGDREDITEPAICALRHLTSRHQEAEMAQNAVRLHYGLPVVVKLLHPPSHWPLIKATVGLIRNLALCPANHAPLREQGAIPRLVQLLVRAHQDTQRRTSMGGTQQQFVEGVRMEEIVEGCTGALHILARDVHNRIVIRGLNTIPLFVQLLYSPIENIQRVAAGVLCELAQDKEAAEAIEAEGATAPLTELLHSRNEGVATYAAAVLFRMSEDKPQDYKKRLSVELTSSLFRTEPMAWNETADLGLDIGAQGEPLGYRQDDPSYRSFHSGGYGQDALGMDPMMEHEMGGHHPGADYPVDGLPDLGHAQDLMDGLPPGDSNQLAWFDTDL

Assays:
[1] = biological target: T1, Glycoprotein 90K, myc-tagged (90K-myc) (UniProt Q08380); assay: co-IP; HEK293T cells treated with 90K conditioned medium (90K/CM, only mature 90K); lysates immunoprecipitated with anti-myc antibody, 16 h at 4 °C, protein G-Sepharose
T1 sequence: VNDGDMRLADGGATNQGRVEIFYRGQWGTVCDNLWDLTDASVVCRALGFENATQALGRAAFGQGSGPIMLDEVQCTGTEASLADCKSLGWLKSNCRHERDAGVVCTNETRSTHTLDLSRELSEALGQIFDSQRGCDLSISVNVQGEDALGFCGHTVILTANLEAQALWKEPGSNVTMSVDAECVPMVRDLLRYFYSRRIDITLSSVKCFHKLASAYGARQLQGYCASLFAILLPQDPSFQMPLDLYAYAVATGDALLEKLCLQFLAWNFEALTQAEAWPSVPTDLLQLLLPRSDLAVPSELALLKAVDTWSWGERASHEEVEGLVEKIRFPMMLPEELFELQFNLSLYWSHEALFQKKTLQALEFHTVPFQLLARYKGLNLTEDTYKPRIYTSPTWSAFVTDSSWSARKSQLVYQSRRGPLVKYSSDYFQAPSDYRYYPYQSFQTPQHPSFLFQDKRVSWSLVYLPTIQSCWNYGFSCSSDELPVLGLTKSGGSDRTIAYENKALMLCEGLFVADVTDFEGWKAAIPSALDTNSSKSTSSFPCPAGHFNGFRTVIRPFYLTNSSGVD

[2] = biological target: T1, Glycoprotein 90K, myc-tagged (90K-myc); assay: co-IP; HEK293T cells transfected with 90K-myc plasmid (also together with p120-catenin shRNA, human-specific or canine-specific control); lysates immunoprecipitated with anti-myc antibody, 16 h at 4 °C, protein G-Sepharose; blots for E-cadherin, p120-catenin, β-catenin

binding [1]: no binding | binding [2]: no binding
Molecule: β-catenin (from UniProt P35222 1-781)

binding [1]: binds | binding [2]: binds
B1: p120-catenin (protein, UniProt O60716 1-968)
chain: MDDSEVESTASILASVKEQEAQFEKLTRALEEERRHVSAQLERVRVSPQDANPLMANGTLTRRHQNGRFVGDADLERQKFSDLKLNGPQDHSHLLYSTIPRMQEPGQIVETYTEEDPEGAMSVVSVETSDDGTTRRTETTVKKVVKTVTTRTVQPVAMGPDGLPVDASSVSNNYIQTLGRDFRKNGNGGPGPYVGQAGTATLPRNFHYPPDGYSRHYEDGYPGGSDNYGSLSRVTRIEERYRPSMEGYRAPSRQDVYGPQPQVRVGGSSVDLHRFHPEPYGLEDDQRSMGYDDLDYGMMSDYGTARRTGTPSDPRRRLRSYEDMIGEEVPSDQYYWAPLAQHERGSLASLDSLRKGGPPPPNWRQPELPEVIAMLGFRLDAVKSNAAAYLQHLCYRNDKVKTDVRKLKGIPVLVGLLDHPKKEVHLGACGALKNISFGRDQDNKIAIKNCDGVPALVRLLRKARDMDLTEVITGTLWNLSSHDSIKMEIVDHALHALTDEVIIPHSGWEREPNEDCKPRHIEWESVLTNTAGCLRNVSSERSEARRKLRECDGLVDALIFIVQAEIGQKDSDSKLVENCVCLLRNLSYQVHREIPQAERYQEAAPNVANNTGPHAASCFGAKKGKDEWFSRGKKPIEDPANDTVDFPKRTSPARGYELLFQPEVVRIYISLLKESKTPAILEASAGAIQNLCAGRWTYGRYIRSALRQEKALSAIADLLTNEHERVVKAASGALRNLAVDARNKELIGKHAIPNLVKNLPGGQQNSSWNFSEDTVISILNTINEVIAENLEAAKKLRETQGIEKLVLINKSGNRSEKEVRAAALVLQTIWGYKELRKPLEKEGWKKSDFQVNLNNASRSQSSHSYDDSTLPLIDRNQKSDKKPDREEIQMSNMGSNTKSLDNNYSTPNERGDHNRTLDRSGDLGDMEPLKGTTPLMQDEGQESLEEELDVLVLDDEGGQVSYPSMQKI
